We go through one substance from publication PMC7948726.

Sequences of proteins named here, by UniProt entry; tags and fusion partners are left off. A change or cut given only in a name is not applied to a line headed by its entry. A line that says so, or that is headed by a name, gives the form on record, which may keep a tag or linker.
V5-Tau (P10636-6, form named): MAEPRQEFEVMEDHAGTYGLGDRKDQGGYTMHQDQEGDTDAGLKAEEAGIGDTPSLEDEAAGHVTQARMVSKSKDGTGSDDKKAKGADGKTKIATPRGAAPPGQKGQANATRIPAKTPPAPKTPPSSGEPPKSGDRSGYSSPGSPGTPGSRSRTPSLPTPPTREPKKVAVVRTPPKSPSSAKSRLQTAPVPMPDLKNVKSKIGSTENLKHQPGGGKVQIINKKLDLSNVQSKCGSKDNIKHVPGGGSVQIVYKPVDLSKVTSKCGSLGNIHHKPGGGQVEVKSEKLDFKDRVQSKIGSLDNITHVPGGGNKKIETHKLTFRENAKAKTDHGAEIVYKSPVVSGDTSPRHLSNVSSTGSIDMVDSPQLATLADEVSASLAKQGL

The target in one assay is T1, Myc-PPM1B (human) (UniProt O75688).
T1 sequence: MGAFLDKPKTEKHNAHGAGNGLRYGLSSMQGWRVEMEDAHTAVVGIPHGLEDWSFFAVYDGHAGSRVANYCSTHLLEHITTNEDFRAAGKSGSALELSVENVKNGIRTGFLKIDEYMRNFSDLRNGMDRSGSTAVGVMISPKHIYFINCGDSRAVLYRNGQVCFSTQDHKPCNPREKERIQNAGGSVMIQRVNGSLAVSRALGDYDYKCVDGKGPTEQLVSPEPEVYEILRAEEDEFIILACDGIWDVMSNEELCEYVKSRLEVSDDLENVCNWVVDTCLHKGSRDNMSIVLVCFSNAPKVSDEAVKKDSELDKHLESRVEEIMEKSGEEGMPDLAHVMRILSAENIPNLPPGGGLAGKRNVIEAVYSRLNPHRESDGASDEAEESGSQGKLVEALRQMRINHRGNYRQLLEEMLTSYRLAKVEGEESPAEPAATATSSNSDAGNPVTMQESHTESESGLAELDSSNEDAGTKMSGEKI
Briefly: co-IP; HEK293 cells transfected 24 h with V5-Tau, Myc-PPM1A or Myc-PPM1B; precipitated with anti-Myc, blot with anti-V5.

A further assay deals with T2, Myc-PPM1A (UniProt P35813).
T2 sequence: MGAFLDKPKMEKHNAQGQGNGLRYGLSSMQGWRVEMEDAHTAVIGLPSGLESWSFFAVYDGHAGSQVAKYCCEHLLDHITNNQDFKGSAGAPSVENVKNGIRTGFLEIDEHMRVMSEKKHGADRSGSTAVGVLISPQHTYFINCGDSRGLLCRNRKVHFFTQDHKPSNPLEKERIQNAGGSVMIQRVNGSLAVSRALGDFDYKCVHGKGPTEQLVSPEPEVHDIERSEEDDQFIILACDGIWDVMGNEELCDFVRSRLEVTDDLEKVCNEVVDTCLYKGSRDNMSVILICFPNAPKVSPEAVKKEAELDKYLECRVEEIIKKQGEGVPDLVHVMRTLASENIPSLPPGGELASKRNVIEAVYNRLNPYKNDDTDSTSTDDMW
The assay is described as above.

Results are given in words; binding and its absence hold for the method and conditions named. In cells and extracts the contact can be indirect. Where a sequence is shown, tags or fusion partners need not be part of it.

As to V5-Tau (from UniProt P10636-6 1-383), the binding result with Myc-PPM1B (human) and in the assay with Myc-PPM1A was “no binding” in each case.
